According to patent US5981729:
For at least one entry, the source does not settle the construct or the ends of the probe.

System: Athb-12 (full-length, aa 1-235) (Arabidopsis thaliana)
Assay: EMSA
Conditions: strong binding; 25 mM HEPES pH 7.6, 1 mM MgCl2, room temp; no binding with translation lacking RNA; protein translated in vitro; label: 32P 5' end

## TCAATTAATTGA (double strand) [EN (Engrailed consensus site)]
  binding result: binds
